Results are given in words; binding and its absence hold for the method and conditions named.
Assays:
[1] = target: human GDF8 protein (human) (UniProt O14793); experiment: ELISA, coated protein
[2] = target: human AMH protein (human) (UniProt P03971); experiment: ELISA, coated protein

Amino acid sequences for entries named in this document (tags omitted). A change or cut given only in a name is not applied to a line headed by its entry.
UniProt O14793: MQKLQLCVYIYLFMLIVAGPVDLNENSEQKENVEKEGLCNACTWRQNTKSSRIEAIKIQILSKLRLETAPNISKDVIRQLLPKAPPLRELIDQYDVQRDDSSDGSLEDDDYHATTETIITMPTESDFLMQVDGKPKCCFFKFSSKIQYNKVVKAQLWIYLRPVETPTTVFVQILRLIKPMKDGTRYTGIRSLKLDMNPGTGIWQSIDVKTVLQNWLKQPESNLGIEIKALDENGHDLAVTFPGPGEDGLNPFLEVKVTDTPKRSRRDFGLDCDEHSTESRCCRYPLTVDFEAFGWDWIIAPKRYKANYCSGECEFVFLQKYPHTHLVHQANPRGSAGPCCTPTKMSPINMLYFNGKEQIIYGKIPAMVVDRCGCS
UniProt P03971: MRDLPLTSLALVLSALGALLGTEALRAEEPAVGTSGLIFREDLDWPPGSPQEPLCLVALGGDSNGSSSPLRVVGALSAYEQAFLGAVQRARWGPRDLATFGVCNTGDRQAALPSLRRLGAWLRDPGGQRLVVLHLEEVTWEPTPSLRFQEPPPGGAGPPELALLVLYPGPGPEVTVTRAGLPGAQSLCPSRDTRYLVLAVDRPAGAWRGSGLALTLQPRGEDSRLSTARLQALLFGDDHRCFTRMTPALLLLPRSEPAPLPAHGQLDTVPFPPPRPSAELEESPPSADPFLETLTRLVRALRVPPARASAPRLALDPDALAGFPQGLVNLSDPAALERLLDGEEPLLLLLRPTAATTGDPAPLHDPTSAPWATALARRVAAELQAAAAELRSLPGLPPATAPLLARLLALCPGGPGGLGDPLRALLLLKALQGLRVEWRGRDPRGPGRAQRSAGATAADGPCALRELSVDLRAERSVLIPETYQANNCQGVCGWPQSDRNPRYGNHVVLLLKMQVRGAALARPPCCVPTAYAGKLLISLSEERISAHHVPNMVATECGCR

binding [1]: no binding (tested: 4 µg/mL) | binding [2]: no binding (tested: 4 µg/mL)
B1: Hu21H6D2 (antibody, human IgG1, kappa, V domains shown)
VH: QVQLVQSGAEVKKPGASVKVSCKASGYTFTGYIMNWVRQAPGQRLEWMGDIDPYYGDAKYNQKFKGKVTITVDKSASTAYMELSSLRSEDTAVYYCARRDYDHGSFAYWGQGTLVTVSS
VL: EIVLTQSPDFQSVTPKEKVTITCSASSSVNYMHWYQQKPDQSPKRLIYDTSKLASGVPSRFSGSGSGTDYTLTINSLEAEDAATYYCQQWSSNPPTFGQGTKLEIKR
notes: Humanized form of murine 21H6D2; human IgG1 constant region with L234A, L235A, G237A and kappa light chain constant region; also called hu21H6D2-IgG1-mut(L234A,L235A,G237A)

Reference: patent EP4818204A1 (Nanjing Leads Biolabs Co., Ltd., dated 2026)
